Values of other authors in patent US20090325862A1, “Histone Deacetylase Inhibitors for the Treatment of Neurodegeneration” (priority 2006, published 2009).
Some results were stated once for a whole list of compounds, not compound by compound. At least one structure is not confirmed: it was looked up by name or label, or the drawing left a doubt.

Tested on: HDAC1 and HDAC3 over HDAC 8
Settings: see Vannini, PNAS; cited from earlier work

Structure (SMILES) | selectivity for HDAC1 and HDAC3 over HDAC 8
CN(c1ccc(C(=O)NO)cc1)S(=O)(=O)c1ccc(-c2ccccn2)s1 [N-hydroxy-4-{methyl[(5-pyridin-2-yl-2-thienyl)sulfonyl]amino}benzamide] | more than 25 fold
CC(/C=C/C(=O)NO)=C\[C@@H](C)C(=O)c1ccc(N(C)C)cc1 [TSA, trichlorostatin A] | more than 25 fold
